Results taken from the supplement of paper PMC11006884.
Only a part is listed here, and it is no random draw.

By UniProt entry, the sequences of proteins in these tests, tags left out. Where a name states a change or a piece, a line headed by the entry shows the natural chain unless it says otherwise.
UniProt P22059, whole entry: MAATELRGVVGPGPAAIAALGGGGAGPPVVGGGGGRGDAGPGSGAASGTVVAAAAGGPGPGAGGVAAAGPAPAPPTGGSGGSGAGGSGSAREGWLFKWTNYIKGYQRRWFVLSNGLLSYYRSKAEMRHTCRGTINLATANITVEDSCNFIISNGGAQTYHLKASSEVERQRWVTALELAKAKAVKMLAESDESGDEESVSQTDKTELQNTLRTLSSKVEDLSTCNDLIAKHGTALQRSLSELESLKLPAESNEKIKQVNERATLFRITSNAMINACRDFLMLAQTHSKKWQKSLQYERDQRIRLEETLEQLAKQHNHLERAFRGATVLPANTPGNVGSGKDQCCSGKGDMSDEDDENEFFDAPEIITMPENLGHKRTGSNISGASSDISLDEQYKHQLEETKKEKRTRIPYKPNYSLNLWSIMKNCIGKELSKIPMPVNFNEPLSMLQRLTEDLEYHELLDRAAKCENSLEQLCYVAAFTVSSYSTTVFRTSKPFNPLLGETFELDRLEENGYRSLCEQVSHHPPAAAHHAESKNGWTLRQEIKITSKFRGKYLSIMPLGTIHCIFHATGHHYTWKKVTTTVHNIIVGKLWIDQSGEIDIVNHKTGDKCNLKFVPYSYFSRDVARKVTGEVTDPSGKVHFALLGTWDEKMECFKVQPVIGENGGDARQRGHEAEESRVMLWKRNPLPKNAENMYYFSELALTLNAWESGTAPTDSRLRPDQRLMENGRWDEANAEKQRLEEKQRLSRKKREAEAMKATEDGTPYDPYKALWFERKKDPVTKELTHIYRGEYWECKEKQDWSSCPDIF
UniProt P21333, whole entry, looked up: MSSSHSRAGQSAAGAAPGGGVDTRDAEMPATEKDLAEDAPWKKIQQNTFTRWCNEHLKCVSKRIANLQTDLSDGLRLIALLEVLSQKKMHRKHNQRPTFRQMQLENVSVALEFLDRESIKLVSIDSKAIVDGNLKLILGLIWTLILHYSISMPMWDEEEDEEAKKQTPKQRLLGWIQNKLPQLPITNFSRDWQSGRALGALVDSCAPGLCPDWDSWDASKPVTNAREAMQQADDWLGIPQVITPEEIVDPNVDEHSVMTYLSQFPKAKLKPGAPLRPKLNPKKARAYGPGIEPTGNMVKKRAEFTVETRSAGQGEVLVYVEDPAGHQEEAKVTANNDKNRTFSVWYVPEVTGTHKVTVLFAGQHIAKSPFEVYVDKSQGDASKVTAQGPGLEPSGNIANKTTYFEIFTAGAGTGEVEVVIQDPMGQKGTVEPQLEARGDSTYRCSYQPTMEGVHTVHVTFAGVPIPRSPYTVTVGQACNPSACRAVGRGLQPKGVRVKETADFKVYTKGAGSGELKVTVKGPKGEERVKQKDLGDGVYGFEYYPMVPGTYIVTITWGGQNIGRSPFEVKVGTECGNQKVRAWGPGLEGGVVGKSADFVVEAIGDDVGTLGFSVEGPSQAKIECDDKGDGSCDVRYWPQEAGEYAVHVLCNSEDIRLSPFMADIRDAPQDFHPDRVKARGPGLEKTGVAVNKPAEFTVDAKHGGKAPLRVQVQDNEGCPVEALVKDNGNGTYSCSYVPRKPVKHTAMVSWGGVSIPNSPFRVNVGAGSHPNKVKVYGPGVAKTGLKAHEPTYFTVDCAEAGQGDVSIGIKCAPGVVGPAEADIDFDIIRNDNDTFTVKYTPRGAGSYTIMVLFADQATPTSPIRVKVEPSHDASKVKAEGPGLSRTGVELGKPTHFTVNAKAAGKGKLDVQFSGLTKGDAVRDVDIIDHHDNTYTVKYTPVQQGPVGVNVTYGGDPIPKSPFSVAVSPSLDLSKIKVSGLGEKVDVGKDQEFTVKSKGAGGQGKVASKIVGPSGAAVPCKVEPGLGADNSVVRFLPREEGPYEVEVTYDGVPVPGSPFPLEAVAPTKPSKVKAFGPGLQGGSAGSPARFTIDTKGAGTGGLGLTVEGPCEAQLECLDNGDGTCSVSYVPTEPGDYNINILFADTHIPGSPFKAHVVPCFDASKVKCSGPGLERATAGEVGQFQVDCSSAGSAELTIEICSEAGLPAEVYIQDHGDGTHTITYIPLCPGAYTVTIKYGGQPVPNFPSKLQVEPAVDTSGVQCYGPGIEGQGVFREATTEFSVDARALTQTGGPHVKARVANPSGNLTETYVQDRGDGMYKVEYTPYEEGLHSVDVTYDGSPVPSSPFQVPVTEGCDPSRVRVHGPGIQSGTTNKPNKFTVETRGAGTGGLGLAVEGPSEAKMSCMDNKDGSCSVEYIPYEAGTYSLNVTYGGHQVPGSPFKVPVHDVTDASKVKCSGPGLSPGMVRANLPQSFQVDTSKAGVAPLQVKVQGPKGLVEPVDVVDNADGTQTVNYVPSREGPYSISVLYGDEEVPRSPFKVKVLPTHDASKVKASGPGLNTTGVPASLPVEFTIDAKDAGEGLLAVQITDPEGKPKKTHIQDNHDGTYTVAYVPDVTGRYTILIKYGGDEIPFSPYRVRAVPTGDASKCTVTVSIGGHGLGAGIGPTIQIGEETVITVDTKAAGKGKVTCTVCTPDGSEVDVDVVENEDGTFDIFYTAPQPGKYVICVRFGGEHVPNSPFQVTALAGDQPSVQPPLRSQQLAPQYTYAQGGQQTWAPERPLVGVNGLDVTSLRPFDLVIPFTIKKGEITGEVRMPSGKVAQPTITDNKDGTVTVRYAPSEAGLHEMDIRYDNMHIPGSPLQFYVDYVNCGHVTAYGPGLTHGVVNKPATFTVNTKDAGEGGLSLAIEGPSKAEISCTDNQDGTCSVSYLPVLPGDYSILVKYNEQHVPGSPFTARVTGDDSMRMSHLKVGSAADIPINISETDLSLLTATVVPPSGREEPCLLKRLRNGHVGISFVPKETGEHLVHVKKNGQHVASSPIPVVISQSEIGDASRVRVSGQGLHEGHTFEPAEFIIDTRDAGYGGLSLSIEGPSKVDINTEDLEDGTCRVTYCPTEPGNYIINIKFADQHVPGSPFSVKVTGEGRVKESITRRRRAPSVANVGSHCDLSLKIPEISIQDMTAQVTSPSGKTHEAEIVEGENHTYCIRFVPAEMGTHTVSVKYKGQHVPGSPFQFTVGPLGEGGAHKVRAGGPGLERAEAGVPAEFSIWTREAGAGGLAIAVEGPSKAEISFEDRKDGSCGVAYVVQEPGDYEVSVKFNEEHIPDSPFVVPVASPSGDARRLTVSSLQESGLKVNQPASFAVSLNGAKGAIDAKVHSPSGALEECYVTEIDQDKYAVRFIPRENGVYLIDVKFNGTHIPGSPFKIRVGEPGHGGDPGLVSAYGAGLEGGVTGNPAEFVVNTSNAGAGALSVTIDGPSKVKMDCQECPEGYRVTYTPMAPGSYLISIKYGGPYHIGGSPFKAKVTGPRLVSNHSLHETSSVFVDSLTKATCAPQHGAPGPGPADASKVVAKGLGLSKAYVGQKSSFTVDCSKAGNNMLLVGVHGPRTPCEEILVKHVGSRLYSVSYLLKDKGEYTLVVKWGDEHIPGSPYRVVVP
UniProt P26640: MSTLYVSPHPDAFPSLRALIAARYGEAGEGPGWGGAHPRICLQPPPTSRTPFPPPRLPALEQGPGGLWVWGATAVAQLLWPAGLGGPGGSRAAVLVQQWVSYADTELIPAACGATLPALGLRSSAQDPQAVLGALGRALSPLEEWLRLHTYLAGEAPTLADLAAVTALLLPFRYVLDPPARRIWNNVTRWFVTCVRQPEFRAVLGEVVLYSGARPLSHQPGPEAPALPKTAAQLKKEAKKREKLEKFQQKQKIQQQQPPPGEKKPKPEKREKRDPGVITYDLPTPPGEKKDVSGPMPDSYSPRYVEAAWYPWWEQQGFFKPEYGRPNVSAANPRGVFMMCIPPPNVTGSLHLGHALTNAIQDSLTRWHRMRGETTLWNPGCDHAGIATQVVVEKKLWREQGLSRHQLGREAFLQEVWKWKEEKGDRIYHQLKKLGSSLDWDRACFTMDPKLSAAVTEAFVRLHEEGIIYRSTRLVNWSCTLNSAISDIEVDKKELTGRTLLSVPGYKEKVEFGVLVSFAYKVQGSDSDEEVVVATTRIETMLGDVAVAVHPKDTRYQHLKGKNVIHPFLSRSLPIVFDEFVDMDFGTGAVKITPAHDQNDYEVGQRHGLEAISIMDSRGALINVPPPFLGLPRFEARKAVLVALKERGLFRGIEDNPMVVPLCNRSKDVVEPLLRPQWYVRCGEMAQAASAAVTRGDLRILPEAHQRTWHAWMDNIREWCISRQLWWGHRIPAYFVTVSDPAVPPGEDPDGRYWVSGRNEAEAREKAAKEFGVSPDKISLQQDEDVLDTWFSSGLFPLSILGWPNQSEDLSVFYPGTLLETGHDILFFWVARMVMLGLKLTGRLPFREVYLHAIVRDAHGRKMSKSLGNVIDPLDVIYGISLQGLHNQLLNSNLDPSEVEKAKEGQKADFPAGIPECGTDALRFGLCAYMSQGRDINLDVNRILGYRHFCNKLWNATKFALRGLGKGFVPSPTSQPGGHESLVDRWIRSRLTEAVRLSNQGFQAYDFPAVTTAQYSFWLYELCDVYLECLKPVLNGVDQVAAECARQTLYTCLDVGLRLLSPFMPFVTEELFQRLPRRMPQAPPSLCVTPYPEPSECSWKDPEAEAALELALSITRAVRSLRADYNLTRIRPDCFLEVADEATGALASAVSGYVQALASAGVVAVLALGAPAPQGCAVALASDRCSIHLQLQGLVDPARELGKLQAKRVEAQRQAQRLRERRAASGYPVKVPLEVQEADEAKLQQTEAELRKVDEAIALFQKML
UniProt P19174: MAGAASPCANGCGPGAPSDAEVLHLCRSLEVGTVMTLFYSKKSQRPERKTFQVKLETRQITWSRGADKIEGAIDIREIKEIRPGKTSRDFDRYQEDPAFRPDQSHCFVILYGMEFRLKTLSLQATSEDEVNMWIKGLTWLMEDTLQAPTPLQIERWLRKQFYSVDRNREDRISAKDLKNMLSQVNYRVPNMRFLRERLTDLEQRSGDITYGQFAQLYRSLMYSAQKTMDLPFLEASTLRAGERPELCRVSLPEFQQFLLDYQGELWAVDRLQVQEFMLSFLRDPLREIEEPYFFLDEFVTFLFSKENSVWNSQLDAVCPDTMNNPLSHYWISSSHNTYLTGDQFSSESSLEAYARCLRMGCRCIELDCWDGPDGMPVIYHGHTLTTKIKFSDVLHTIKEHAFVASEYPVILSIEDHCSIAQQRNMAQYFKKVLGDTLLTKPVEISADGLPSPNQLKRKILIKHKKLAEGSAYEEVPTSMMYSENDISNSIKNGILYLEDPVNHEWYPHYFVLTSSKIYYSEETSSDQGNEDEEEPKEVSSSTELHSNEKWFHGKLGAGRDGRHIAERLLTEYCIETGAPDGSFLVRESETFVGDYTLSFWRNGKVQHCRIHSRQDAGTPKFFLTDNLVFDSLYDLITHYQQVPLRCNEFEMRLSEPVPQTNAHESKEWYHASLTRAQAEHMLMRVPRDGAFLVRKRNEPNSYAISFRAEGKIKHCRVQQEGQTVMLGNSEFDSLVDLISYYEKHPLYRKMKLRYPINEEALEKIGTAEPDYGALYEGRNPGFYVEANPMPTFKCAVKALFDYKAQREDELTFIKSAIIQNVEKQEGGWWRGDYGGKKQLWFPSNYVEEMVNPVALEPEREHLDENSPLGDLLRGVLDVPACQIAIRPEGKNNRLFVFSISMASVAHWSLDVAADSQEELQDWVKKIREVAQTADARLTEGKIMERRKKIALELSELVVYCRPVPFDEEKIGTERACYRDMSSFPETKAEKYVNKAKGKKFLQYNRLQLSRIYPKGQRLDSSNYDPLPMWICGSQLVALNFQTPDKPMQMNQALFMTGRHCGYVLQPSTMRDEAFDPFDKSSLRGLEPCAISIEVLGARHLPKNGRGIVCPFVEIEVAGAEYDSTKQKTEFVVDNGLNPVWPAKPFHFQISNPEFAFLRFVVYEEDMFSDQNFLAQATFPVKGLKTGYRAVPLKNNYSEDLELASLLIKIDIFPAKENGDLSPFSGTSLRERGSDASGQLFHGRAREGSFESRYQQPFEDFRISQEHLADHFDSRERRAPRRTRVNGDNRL
UniProt P28838: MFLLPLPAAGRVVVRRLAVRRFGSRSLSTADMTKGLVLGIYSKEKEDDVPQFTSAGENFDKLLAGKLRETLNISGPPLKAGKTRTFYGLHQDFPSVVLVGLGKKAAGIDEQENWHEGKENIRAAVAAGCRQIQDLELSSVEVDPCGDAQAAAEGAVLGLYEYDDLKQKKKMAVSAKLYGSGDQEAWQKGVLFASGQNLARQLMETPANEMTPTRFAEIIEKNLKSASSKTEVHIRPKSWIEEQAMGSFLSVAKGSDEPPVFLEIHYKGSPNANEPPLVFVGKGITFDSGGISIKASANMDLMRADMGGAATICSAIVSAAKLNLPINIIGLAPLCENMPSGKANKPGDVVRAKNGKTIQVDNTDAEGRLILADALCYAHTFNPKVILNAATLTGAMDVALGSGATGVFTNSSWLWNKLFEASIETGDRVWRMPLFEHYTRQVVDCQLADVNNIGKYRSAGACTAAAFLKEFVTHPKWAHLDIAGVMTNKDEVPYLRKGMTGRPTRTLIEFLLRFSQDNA

compound: COC(=O)C#Cc1ccccc1 [methyl 3-phenylpropiolate]; assay: log2 ratio of iodoacetamide-alkyne labeling of the cysteine site, DMSO over compound (competition); higher = stronger covalent engagement of the cysteine by the compound, active = 1 or more; conditions: 500 µM; treatment time 1 h; system: HEK293T cell lysate
Procedure, shortened: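 Electrophile (500 µM) or vehicle was added to HEK293T lysate (2 mg/mL) for 1 h at ambient temperature before iodoacetamide alkyne labelling (1 h) and click coupling to sCIP-TMT reagents. After pooling, overnight trypsin digestion at 37 °C, streptavidin enrichment and acid elution, peptides were measured by Orbitrap Eclipse LC-MS/MS with FAIMS and quantified in FragPipe. Each cysteine's log2 competition ratio compares mean control-channel with mean compound-channel reporter intensity, control over compound. Data came from duplicate channels across three replicates, excluding cysteines quantified in only one replicate.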

log2 ratio of iodoacetamide-alkyne labeling, inactive:
UBA1 C413 (UniProt P22314) 0.0618, RPL17 C15 (UniProt P18621) 0.423, PTBP1 C251 (UniProt P26599) 0.112, OSBP C224 (UniProt P22059) -0.138, FLNA C1018 (UniProt P21333) 0.0782, VARS C340 (UniProt P26640) 0.192, PLCG1 C247 (UniProt P19174) 0.104, TKT C386 (UniProt P29401) -0.878, DCK C45 (UniProt P27707) 0.103, FLNA C1260 (UniProt P21333) 0.497, PSMA4 C163 (UniProt P25789) 0.263, UniProt P26639_C656 0.155, DNMT1 C1125 (UniProt P26358) 0.473, ANXA7 C285 (UniProt P20073) 0.0794, LAP3 C313 (UniProt P28838) 0.196, ACAT1 C126 (UniProt P24752) 0.42, LAP3 C462 (UniProt P28838) -0.162, AHCY C421 (UniProt P23526) 0.126, SFPQ C297 (UniProt P23246) -0.122, TPP2 C150 (UniProt P29144) 0.159, ARF4 C159 (UniProt P18085) 0.0639, GTF2E2 C208 (UniProt P29084) -0.00699, TKT C42 (UniProt P29401) 0.965, LAP3 C376 (UniProt P28838) -0.0517, VDAC1 C232 (UniProt P21796) -0.026, VARS C663 (UniProt P26640) 0.338, ARNT C380 (UniProt P27540) 0.324, APC C1502 (UniProt P25054) 0.187, POLD1 C873 (UniProt P28340) 0.195, RPL10 C105 (UniProt P27635) 0.809, MAP4 C535 (UniProt P27816) -0.0505, RPS3 C134 (UniProt P23396) -0.271, FBL C268 (UniProt P22087) 0.27, VARS C682 (UniProt P26640) 0.0372, LMNB1 C198 (UniProt P20700) 0.109, UniProt P28290_C901 0.884, FLNA C2293 (UniProt P21333) 0.32
